The values that follow come from patent US20250032629A1, “NOVEL NUCLEOLIN-BINDING PEPTIDE AND USE THEREOF” (ANYGEN CO., LTD., priority 2020, published 2025).

The IC50 is the point on the concentration scale where inhibition reaches its midpoint. A low value points to greater potency.

The assay relates to MDA-MB-231 cells. Nature of the assay: Cell proliferation assay (WST-1), AGM-330-PTX. The conditions noted are these: Homo sapiens, MDA-MB-231, 48 h. Type of assay: cell-based.

`CC(=O)O[C@H]1C(=O)[C@@]2(C)[C@H]([C@H](OC(=O)c3ccccc3)[C@]3(O)C[C@H](OC(=O)[C@H](O)[C@@H](NC(=O)c4ccccc4)c4ccccc4)C(C)=C1C3(C)C)[C@]1(OC(C)=O)CO[C@@H]1C[C@@H]2O` [PTX, Paclitaxel, reference compound] had an IC50 of 6.8 µM.
